The list shows a part of the results.

In the experiment the target is T1, OsSMF1 (Oryza sativa, UniProt Q6ZLB0 1-436).
T1 sequence: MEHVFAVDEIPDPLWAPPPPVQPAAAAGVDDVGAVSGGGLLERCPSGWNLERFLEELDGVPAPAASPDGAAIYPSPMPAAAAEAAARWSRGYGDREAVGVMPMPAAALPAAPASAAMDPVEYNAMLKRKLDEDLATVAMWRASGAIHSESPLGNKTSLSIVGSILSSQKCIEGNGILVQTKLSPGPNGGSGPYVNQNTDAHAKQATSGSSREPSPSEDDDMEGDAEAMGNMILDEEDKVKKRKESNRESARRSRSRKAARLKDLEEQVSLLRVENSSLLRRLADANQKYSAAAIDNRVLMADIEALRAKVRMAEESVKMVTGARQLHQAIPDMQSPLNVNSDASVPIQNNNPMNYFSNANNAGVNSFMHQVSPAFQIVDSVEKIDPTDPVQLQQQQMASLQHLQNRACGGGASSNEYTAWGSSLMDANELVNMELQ
Nature of the experiment: protein-binding microarray (RPBM); PBS, 2% BSA, 51.3 ng/ul salmon testes DNA, 50 uM zinc acetate, 200 nM TF, 25 C, 1 h; high values mean tight binding. Particulars: protein: recombinant; tags: N-terminal polyhistidine and DsRed monomer fusion (pET32a); chain copies: 2; label: CyDye5-dUTP incorporated in the synthesized complementary strand; 3' TTTTT single-stranded linker to array surface; dsDNA, one strand shown. An outline of the steps:
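Transcription factors were made in E. coli BL21-CodonPlus as N-terminal fusions to a polyhistidine tag and DsRed, then purified on Ni–NTA. After primer extension with Cy5-dUTP and blocking with 2% BSA, a custom Agilent array was exposed for 1 h at 25 °C to 200 nM protein in PBS, 2% BSA, salmon testes DNA and 50 µM zinc acetate. Washed arrays were scanned on an Axon 4000B, and the binding signal is per-feature fluorescence intensity in arbitrary units.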
Take “CCCCGGGATATGATGGCAATCCCTACGTCACCGGTGACAGCGGAGTCACCTAGTGCAG”: the binding signal is 6790 fluorescence intensity (a.u.).

Take “GCGTGTGCATCTGCCATGTAATCCAAAATATAGCCATGAACGGAGTCACCTAGTGCAG”: the binding signal is 3660 fluorescence intensity (a.u.).

Take “CAAGGTAAGTTAAGTAATGAAGAGGAATAGATGAGAATTGCGGAGTCACCTAGTGCAG”: the binding signal was 3210 fluorescence intensity (a.u.).

On to “GGCTAGAGGGACGGCGCTAACATGTTTGTCATCATCATATCGGAGTCACCTAGTGCAG”, for which the binding signal was 4010 fluorescence intensity (a.u.).

Regarding “CGGTTTGTTCACCCAATCTGGTTCGAGCTGACTCGTGTGTCGGAGTCACCTAGTGCAG”, the binding signal was 4410 fluorescence intensity (a.u.).

In the case of “AATACTGCCTTCATTGTGGGGTGTAACTGGACGTGTCAGACGGAGTCACCTAGTGCAG”, the binding signal is 4500 fluorescence intensity (a.u.).

Take “ACCACAATGAAAGTTTCAGTTCATATCATATGGCATACTACGGAGTCACCTAGTGCAG”: the binding signal is 3250 fluorescence intensity (a.u.).

Turning to “CGCCCCACCACTCGTGACGCCGACGTACGCTTTGCTCTCTCGGAGTCACCTAGTGCAG”, the binding signal is 4470 fluorescence intensity (a.u.).

Consider “GCATTGGGAGCCCCTGCCTGCCCACCTGTCCTCCCCAGAGCGGAGTCACCTAGTGCAG”, for which the binding signal was 3270 fluorescence intensity (a.u.).

Turning to “AGAGGAACCAATCGTACACGCTGGCGCATAGAAGCTTCCTCGGAGTCACCTAGTGCAG”, the binding signal was 4070 fluorescence intensity (a.u.).

Turning to “GGTGTAGTGACCTTGCACTGACGTGAATAATCGCAGAGCGCGGAGTCACCTAGTGCAG”, the binding signal is 5670 fluorescence intensity (a.u.).

In the case of “TGAGCTCGTAACGGACCTGGCGACGTCAGCGTCCCACTCCCGGAGTCACCTAGTGCAG”, the binding signal is 10700 fluorescence intensity (a.u.).

Regarding “TGGGCCTAATTTTCATCATCAACGTAGGCTAGTTATTAGGCGGAGTCACCTAGTGCAG”, the binding signal is 3940 fluorescence intensity (a.u.).

For the sequence “CTTTGTCCTGTACTATTGCTCATGACTCCATGCCAAGTGGCGGAGTCACCTAGTGCAG”, the binding signal was 4900 fluorescence intensity (a.u.).

Consider “TGTGTACGTCACATCCTAATTAACATCAACTTGATAAAATCGGAGTCACCTAGTGCAG”, for which the binding signal is 7900 fluorescence intensity (a.u.).

Turning to “CGCATCGTGCCCATCCTCTTCGTCCCGCACACGTTTGTGTCGGAGTCACCTAGTGCAG”, the binding signal was 3370 fluorescence intensity (a.u.).

With “CTTGGCATTCTAGAGCACAGCGTGGCATGCGCTATCCCCGCGGAGTCACCTAGTGCAG”, the binding signal was 6040 fluorescence intensity (a.u.).

In the case of “TGAAAGTGCCATTGCTTTGTTGTGGGGCAATGCCTCGATGCGGAGTCACCTAGTGCAG”, the binding signal was 20500 fluorescence intensity (a.u.).

“TCAGTTTAATAATTAATTCAGCTGGTACATTTAGGCGAAACGGAGTCACCTAGTGCAG”: the binding signal is 25100 fluorescence intensity (a.u.).

“TGAGTAATTGATAGTGACACGGCTATCCAACCAATCCAGGCGGAGTCACCTAGTGCAG”: the binding signal was 3170 fluorescence intensity (a.u.).

As for “TGTTTTATGTTGCTGCTTCTTAGAAAGTATACGCGTATTGCGGAGTCACCTAGTGCAG”, the binding signal was 5160 fluorescence intensity (a.u.).

On to “AGTAACCTCAATGAAAGATGCATGGTATCAGATACCACAACGGAGTCACCTAGTGCAG”, for which the binding signal was 3810 fluorescence intensity (a.u.).

As to “TCCGCGGCCCCGCTGGCCCACACGCATGCGTCCAAACAGCCGGAGTCACCTAGTGCAG”, the binding signal was 3940 fluorescence intensity (a.u.).

“TTGTTGCGCAATTTCATATGTTAAGTGAGGTATTATTTTGCGGAGTCACCTAGTGCAG”: the binding signal is 3220 fluorescence intensity (a.u.).

Regarding “GTTTGTCGGCGACGAAGTAGACGTCATCTCCGAAGTCGCTCGGAGTCACCTAGTGCAG”, the binding signal is 4960 fluorescence intensity (a.u.).

Regarding “TATAAGGGTTACTGATGGTTGGGTCCCATAGGATGACTCACGGAGTCACCTAGTGCAG”, the binding signal was 5300 fluorescence intensity (a.u.).

Regarding “TTGATTCGTTTGCCAATGACACGCGGGCCCTTGAGCGCTACGGAGTCACCTAGTGCAG”, the binding signal was 4820 fluorescence intensity (a.u.).

Take “AAATGGCTCGGCCCAATCCCAGGCGAAAACCCGTGTCCTCCGGAGTCACCTAGTGCAG”: the binding signal is 13100 fluorescence intensity (a.u.).

Turning to “GTAGGCACACAGTGACACAGCGTGTCGTTGTACATTTGCACGGAGTCACCTAGTGCAG”, the binding signal was 3140 fluorescence intensity (a.u.).

For the sequence “AATAAATAATTATTGCTAATGGGTGATGATGTGGCATGGTCGGAGTCACCTAGTGCAG”, the binding signal is 6930 fluorescence intensity (a.u.).

As for “CGCCGGCTCCTCGTCCTCGTCACCACCACCACGCCAACATCGGAGTCACCTAGTGCAG”, the binding signal is 7070 fluorescence intensity (a.u.).

With “AAGCGAGCTTACGTATTGACGAATTTACGCTTTCTGGTCACGGAGTCACCTAGTGCAG”, the binding signal is 5050 fluorescence intensity (a.u.).

Take “ATGGGTAGGAGGGTTATTAATTGATGATGTGGTTTGGTTACGGAGTCACCTAGTGCAG”: the binding signal was 7080 fluorescence intensity (a.u.).

In the case of “CATGTAGACGGCATGTTTGACCTGTCAGCGTGTGTGTGTCCGGAGTCACCTAGTGCAG”, the binding signal was 4500 fluorescence intensity (a.u.).

Regarding “TTTGTATGCGTGGATGCAGCCTGACGTGACGGCGCCGGGGCGGAGTCACCTAGTGCAG”, the binding signal was 5240 fluorescence intensity (a.u.).

“AACCGAAATTGTACCACCATGATATGATTCTTAATTTTATCGGAGTCACCTAGTGCAG”: the binding signal was 3360 fluorescence intensity (a.u.).

Regarding “GGCTTCCCGCGCCACAAGCTTTGCCGCCACCTCCTCCTCGCGGAGTCACCTAGTGCAG”, the binding signal was 3230 fluorescence intensity (a.u.).

Regarding “GGCATGATCTGTTTCATATTGTTATGTCAAAGATGTCATTCGGAGTCACCTAGTGCAG”, the binding signal was 30400 fluorescence intensity (a.u.).

Take “CAGCCACTGGTAGTCACAATACGATGACGTGCCCACCGCTCGGAGTCACCTAGTGCAG”: the binding signal is 5000 fluorescence intensity (a.u.).

Turning to “TAGAGCCATACATGCAGACTATATTTGAGCTGACCTCAAACGGAGTCACCTAGTGCAG”, the binding signal is 3320 fluorescence intensity (a.u.).

Regarding “CGTCTAGTTTCCGAAGTAGGGCGTCGAATGTTAGTATTGTCGGAGTCACCTAGTGCAG”, the binding signal was 3340 fluorescence intensity (a.u.).

As for “AGCTAAAATAAACTTTACCAAATTTTGGCAATGCCAAAATCGGAGTCACCTAGTGCAG”, the binding signal was 51800 fluorescence intensity (a.u.).

Values taken from publication PMC7819943, “Rice protein-binding microarrays: a tool to detect cis-acting elements near promoter regions in rice”.
